Laboratory results published in PMC11406361, “Several orphan solute carriers functionally identified as organic cation transporters: Substrates specificity compared with known cation transporters” (The Journal of Biological Chemistry, 2024).

The chains behind the UniProt entries cited, without tags or fusion partners. Where a name states a change or a piece, a line headed by the entry shows the natural chain unless it says otherwise.
UniProt Q8N808: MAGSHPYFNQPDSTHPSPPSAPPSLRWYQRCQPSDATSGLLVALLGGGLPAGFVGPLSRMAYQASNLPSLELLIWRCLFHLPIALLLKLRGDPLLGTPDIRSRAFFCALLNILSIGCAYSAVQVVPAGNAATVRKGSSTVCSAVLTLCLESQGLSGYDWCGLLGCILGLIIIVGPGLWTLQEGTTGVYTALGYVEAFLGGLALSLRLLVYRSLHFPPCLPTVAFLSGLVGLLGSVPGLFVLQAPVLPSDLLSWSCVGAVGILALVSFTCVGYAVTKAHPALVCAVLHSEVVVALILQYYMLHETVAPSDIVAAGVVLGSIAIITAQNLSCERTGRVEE

Biological target: SLC35G3 (Homo sapiens, UniProt Q8N808)
Test: Uptake ratio screen, SLC35G3-overexpressing HEK293 over empty vector cells
Type: cell-based
Design: by amplifying the entire gene-of-interest within the HEK293 genome via a long-range PCR

COc1ccc(CC(C)NCC(O)c2ccc(O)c(NC=O)c2)cc1 (stereo not shown) [Formoterol]
Uptake data for SLC35G3, mean value (fold-increase over empty vector control): 1.01
